PubChem BioAssay AID1259425 | University of Nebraska Medical Center – 2018
This is an unselected part of about 14,000 reagents tested. Further read-outs or replicates are left out here. The record does not give: the time to read-out.

- Purpose: 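Find knockdowns that reproduce the gene expression pattern seen when KSR1 is lost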 (primary screen)
- Cell system: HCT116 human colon cancer cells
- Knock-down reagent: siRNA pool against human genes, 50 nM siRNA
- Read-out: 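mRNA of six signature genes measured together by branched-DNA assay after 50 nM siRNA pool, blank removed, divided by geometric mean of two housekeeping genes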
- Scale: BNIP3L mRNA: higher = more BNIP3L transcript after knockdown

What did the screen give for TAC3?
BNIP3L mRNA, set 1: 0.0975

How did the screen score CYRIB?
BNIP3L mRNA, set 1: 0.121

Which result is listed for MCM2?
BNIP3L mRNA, set 1: 0.0883

With ZBTB37, how do the results read?
BNIP3L mRNA, set 1: 0.13

With GPNMB, how do the results read?
BNIP3L mRNA, set 1: 0.104

For ALDH5A1, what was measured?
BNIP3L mRNA, set 1: 0.139

For SLC20A2, what was measured?
BNIP3L mRNA, set 1: 0.161

For DIMT1, how do the results read?
BNIP3L mRNA, set 1: 0.0577

Which result is listed for TGIF1?
BNIP3L mRNA, set 1: 0.144

Which result is listed for TSC22D2?
BNIP3L mRNA, set 1: 0.163

What did the screen give for HOXA13?
BNIP3L mRNA, set 1: 0.125

For CYP2A6, how do the results read?
BNIP3L mRNA, set 1: 0.108

How did the screen score INPP1?
BNIP3L mRNA, set 1: 0.0834

With DDX17, what was measured?
BNIP3L mRNA, set 1: 0.0708

What is on record for BGLAP?
BNIP3L mRNA, set 1: 0.157

For USHBP1, what was measured?
BNIP3L mRNA, set 1: 0.269

For POLR2D, what does the deposit list?
BNIP3L mRNA, set 1: 0.117

Which result is listed for PCDHGA11?
BNIP3L mRNA, set 1: 0.0614

For KANSL2, what was measured?
BNIP3L mRNA, set 1: 0.0669

Which result is listed for SSUH2?
BNIP3L mRNA, set 1: 0.132

For MYB, how do the results read?
BNIP3L mRNA, set 1: 0.189

With RNF31, how do the results read?
BNIP3L mRNA, set 1: 0.0706

With MEGF6, what does the deposit list?
BNIP3L mRNA, set 1: 0.2

Which result is listed for GPR101?
BNIP3L mRNA, set 1: 0.145

For KRAS, what was measured?
BNIP3L mRNA, set 1: 0.202

Which result is listed for LDB1?
BNIP3L mRNA, set 1: 0.0599

For TSPAN16, what does the deposit list?
BNIP3L mRNA, set 1: 0.119

For ITIH4, what was measured?
BNIP3L mRNA, set 1: 0.104

In a second layout: results already given.
{"target gene":"GPR101","BNIP3L mRNA, set 1":0.145}
{"target gene":"KRAS","BNIP3L mRNA, set 1":0.202}
{"target gene":"LDB1","BNIP3L mRNA, set 1":0.0599}
{"target gene":"TSPAN16","BNIP3L mRNA, set 1":0.119}
